# According to PubChem BioAssay AID1347075 (National Center for Advancing Translational Sciences (NCATS), 2019):
# The whole screen tested about 400,000 compounds, of which about 5,500 (1.4%) were called active. Inconclusive means that the source gave no clear call. Such entries were picked first, then a sample of the others. Calls follow the shape of the dose curve; as a rule, active = well fitted cell-killing curve with a large enough effect; inconclusive = small, poorly fitted or top-dose-only effect, or effect the other way; inactive = flat fitted curve, though single readings scatter. Potencies beside an inconclusive call are fits to weak or partial responses and may not hold up.
# Assay: qHTS assay for MDR1-selective chemotherapeutics: Primary screen using the parental adenocarcinoma cell KB-3-1; also: nearly all actives have a fitted effect of over 60% in size
# Details: KB-3-1 viability, CellTiter-Glo ATP luminescence, 72 h; activity change, negative = cytotoxic: at 46.1 µM (top of the series)
# Procedure, shortened: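 Cytotoxicity in the drug-sensitive parental line KB-3-1 was scored as loss of CellTiter-Glo luminescence following 72 h incubation with compound. Values come from curve fitting of normalized concentration-response data.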
# % is scaled to controls: 0 for no effect and ±100 for the full control effect; potency is read from the fitted curve at half-maximal effect.
SMILES,Potency,"activity change, negative = cytotoxic"
CC1CCC(C(C)C)C(OC(=O)Cn2c(-c3ccc(Cl)cc3)[n+](C)c3ccccc32)C1 (stereo not drawn),"inconclusive: 13 µM [cytotoxic, partial curve, poor fit]",
Cc1cc(OCC(=O)Nc2ccc(S(=O)(=O)N3CCN(C)CC3)cc2)ccc1Br,"inconclusive: 32.6 µM [rising, single point]",
COCCn1c(=S)[nH]c2cc(C(=O)N3CCC(C(N)=O)(N4CCCCC4)CC3)ccc2c1=O,,inactive: 5.25%
Cc1ccc(S(=O)(=O)N2CCN(CC(=O)N/N=C\c3ccccn3)CC2)cc1,"inconclusive: 18.4 µM [rising, partial curve, poor fit]",
CC1(C)CC(=O)C(c2ccccc2)(c2ccccc2)C(=O)C1,,inactive: 2.02%
O=C(c1ccco1)n1nc(-c2ccc(Cl)cc2)nc1NCc1ccco1,"inconclusive: 35.5 µM [cytotoxic, single point]",
Nc1nc(SCc2ccccc2)c2ncn(Cc3ccccc3)c2n1,"inconclusive: 11.6 µM [rising, partial curve, poor fit]",
CC(=O)c1ccc(OCC(C)C)c(Cc2c(O)nc(N)[nH]c2=O)c1,"inconclusive: 29.1 µM [rising, single point]",
O=S(=O)(c1cnc(Cl)c(Br)c1)N1CCCCCC1,,inactive: 7.66%
COCCCn1c(C2CCCCC2)nc2oc3cc(OC)ccc3c(=O)c2c1=O,"inconclusive: 18.4 µM [rising, partial curve, poor fit]",
CCCCNS(=O)(=O)c1cc(-c2nn(C)c(=O)c3ccccc23)ccc1C,active: 16.4 µM,
O=C(O)CC(C(=O)OC1CCCCC1)N1CCOCC1 (stereo not drawn),,inconclusive: 33.3%
CC(=O)Nc1nc2ccccc2n1CCOc1ccccc1,"inconclusive: 23.1 µM [cytotoxic, single point]",
Cc1cc2c(cc(C(=O)OCC(=O)NCc3cccs3)n2C(C)C)o1,active: 9.2 µM,
O=C(Nc1nc2c(s1)CCCC2)c1cccs1,"inconclusive: 29.1 µM [cytotoxic, single point]",
CCN1CCN(c2ccc(S(=O)(=O)N3CCCCC3)cc2NC(=O)/C=C/c2ccc(Cl)cc2)CC1,"inconclusive: 29.1 µM [cytotoxic, single point]",
Nc1ncnc2c1nc(Br)n2[C@@H]1O[C@@H]2COP(=O)(O)O[C@H]2[C@H]1O,"inconclusive: 29.1 µM [cytotoxic, single point]",
CCOc1ccc(C(=O)NCC(c2ccc3c(c2)OCO3)N2CCN(c3ccc(F)cc3)CC2)cc1 (stereo not drawn),,inactive: -0.513%
CC(=O)Nc1ccc(NS(=O)(=O)c2ccc3[nH]c4c(c3c2)CCCCC4)cc1,,inactive: -3.45%
COc1cc(-c2nnc(CSc3nnc(Nc4ccc(Oc5ccccc5)cc4)s3)o2)cc(OC)c1OC,"inconclusive: 25.9 µM [cytotoxic, single point]",
CCN(c1ccccc1)S(=O)(=O)c1ccc(Cl)c(NC(=O)CNC(C)c2ccccc2)c1 (stereo not drawn),"inconclusive: 23.1 µM [cytotoxic, single point]",
CC(C)C(NC(=O)CNC(=O)OC(C)(C)C)C(=O)NCc1ccccc1 (stereo not drawn),"inconclusive: 25.9 µM [cytotoxic, single point]",
O=c1[nH]nc(CNc2ccc(O)cc2)c2ccccc12,"inconclusive: 9.2 µM [cytotoxic, partial curve, poor fit]",

SMILES,Potency,"activity change, negative = cytotoxic"
CCC/C=C/c1ccc(CN2C(C)C(=O)N(Cc3cn(Cc4ccco4)nn3)CCS2(=O)=O)cc1 (stereo not drawn),,inactive: -29.1%
O=C(Nc1ccccc1C(=O)Nc1nnc(C(F)(F)F)s1)c1ccccc1Cl,active: 20.6 µM,
Oc1ccccc1C1CC(c2cccs2)=NC(c2ccc(Cl)cc2)N1 (stereo not drawn),"inconclusive: 32.6 µM [cytotoxic, single point]",
C=CCn1c(COc2ccc3c(c2)CCCC3)nnc1SCC(=O)Nc1cccc(SC)c1,"inconclusive: 23.1 µM [cytotoxic, single point]",
CCOc1cccc(/C=N/NC(=O)c2cc(C3CC3)[nH]n2)c1O,"inconclusive: 23.1 µM [cytotoxic, single point]",
Cc1cc(SCC(=O)N/N=C/c2ccc(O)cc2O)nc2ccccc12,"inconclusive: 23.1 µM [cytotoxic, single point]",
Cc1ccc(-n2nc3c(N4CCC(C(=O)NCCc5ccccc5C)CC4)nnc(C)c3c2C)cc1,"inconclusive: 29.1 µM [cytotoxic, single point]",
COc1ccc(CCOC(=O)c2cccc(NC(C)=O)c2)cc1,"inconclusive: 20.6 µM [cytotoxic, single point]",
CCN(CC)c1ccc(/C=N/NC(=O)c2cnccn2)cc1,"inconclusive: 2.59 µM [cytotoxic, full curve, poor fit]",
COc1ccc(NC(=O)CSc2nc(N)cc(=O)[nH]2)cc1S(=O)(=O)N1CCCCC1,,inactive: 8.48%
Cc1nc2c(sc3nc(N4CCOCC4)c4c(c32)CC(C)(C)OC4)c(-c2ccc(Cl)cc2)c1C(=O)O,"inconclusive: 29.1 µM [cytotoxic, single point]",
Cc1cc(-n2cnnn2)cc(C)c1S(=O)(=O)NCCOc1ccccc1,,inactive: -0.763%
Cc1csc(=O)n1CC(=O)Nc1ccc(S(C)(=O)=O)cc1,"inconclusive: 0.517 µM [rising, full curve, poor fit]",
CCC(=O)Nc1nc2ccccc2n1Cc1ccccc1,"inconclusive: 23.1 µM [cytotoxic, single point]",
COc1cc(CNn2nnnc2N)cc(Br)c1OCc1c(Cl)cccc1Cl,"inconclusive: 18.4 µM [cytotoxic, single point]",
CCCCCCN1C=CC(=C2C(=O)c3ccccc3C2=O)C=C1,"inconclusive: 11.6 µM [cytotoxic, single point]",
CCOC(=O)N1CCN(C(=O)c2ccccc2-c2ccccc2)CC1,active: 4.61 µM,
COc1ccc([C@H]2CC(=O)C=C(c3ccnc4ccc(Cl)cc34)C2)cc1,"inconclusive: 29.1 µM [cytotoxic, single point]",
O=C(Cn1cnc2cc([N+](=O)[O-])ccc2c1=O)NCc1ccccc1,"inconclusive: 20.6 µM [rising, partial curve]",
COc1ccc(CCN2CCCn3c2nc2c3c(=O)[nH]c(=O)n2C)cc1OC,"inconclusive: 29.1 µM [cytotoxic, single point]",
COCOCCn1cc(CN2CCS(=O)(=O)N(Cc3ccc(-c4ccncc4)cc3)C(C(C)C)C2=O)nn1 (stereo not drawn),,inactive: -7.62%
COc1ccccc1OCC(=O)NNC(=O)Nc1ccc(Cl)cc1,active: 18.4 µM,
CS(=O)(=O)N1CCCCC1c1cc(C(=O)NCc2ccc(Cl)c(Cl)c2)no1 (stereo not drawn),,inactive: 0%

SMILES,Potency,"activity change, negative = cytotoxic"
CC1(C(=O)NCC2CCOCC2)Cc2c(-c3cccc(C(F)(F)F)c3)ccnc2O1 (stereo not drawn),"inconclusive: 29.1 µM [cytotoxic, single point]",
COc1cccc(C2C(C(=O)c3cccs3)=C(O)C(=O)N2c2cc(C)on2)c1 (stereo not drawn),,inconclusive: -46.1%
Nc1nccc(/C=C/c2c(F)cccc2Cl)n1,"inconclusive: 29.1 µM [cytotoxic, single point]",
CCCCN(CCCC)C(=O)CSc1nnc2n(C)c(=O)c3c4c(sc3n12)CCCC4,"inconclusive: 18.4 µM [cytotoxic, single point]",
CCc1c(C)nc2ncnn2c1N1CCC(C(=O)Nc2cccc(C(C)=O)c2)CC1,"inconclusive: 16.4 µM [cytotoxic, partial curve, poor fit]",
Cc1ccc(-n2ncc(-c3nn[nH]n3)c2N)cc1,"inconclusive: 2.91 µM [rising, partial curve, poor fit]",
O=C(CCc1ccccc1)NC(c1cccs1)c1cc(Cl)c2cccnc2c1O (stereo not drawn),"inconclusive: 5.17 µM [cytotoxic, full curve]",
COc1cc2c(cc1OC)C1(CCCC1)CNC2C (stereo not drawn),,inactive: -23.9%
COc1ccccc1N1CCN(C(=O)COc2cc(C)cc(C)c2)CC1,,inconclusive: 0%
COc1cc(OC)cc(-c2c(-c3cccs3)c3cc(-c4ccc5[nH]ccc5c4)ccc3n2C)c1,,inactive: -1.52%
Cn1c(=O)c2c(nc(NCc3ccc4c(c3)OCO4)n2Cc2ccc(F)cc2)n(C)c1=O,"inconclusive: 25.1 µM [cytotoxic, single point]",
Cn1ccnc1C(=O)c1cc(SCC(=O)NCc2ccccc2)nc2ccccc12,"inconclusive: 29.1 µM [cytotoxic, single point]",
O=[N+]([O-])c1ccc(/C=N/n2cnc3ccccc32)s1,"inconclusive: 16.4 µM [cytotoxic, single point]",
Nc1nc(C2CC2)c(Sc2sc(N)nc2C2CC2)s1,"inconclusive: 10.3 µM [cytotoxic, partial curve, poor fit]",
Cn1c(=O)n(CC(=O)OCc2ccccc2)c(=O)c2c1nc1n2CCCN1C1CCCCC1,,inactive: -23.2%
COC(=O)C[C@H]1C[C@H]2c3cc(NC(=O)C4CCOCC4)ccc3O[C@H]2[C@H](CO)O1,,inactive: -0.642%
Cc1cc2nc(-c3ccc(SCc4ccc(C(=O)O)cc4)nc3)[nH]c2cc1C,"inconclusive: 29.1 µM [cytotoxic, single point]",
O=S(=O)(Cc1ccc(Cl)cc1Cl)c1ccc(Cl)cc1,active: 1.64 µM,
Cc1cc(Nc2ccc3c(c2)OCCO3)c2cccc(C)c2n1,"inconclusive: 3.66 µM [cytotoxic, partial curve, poor fit]",
Cc1ccc2nc(/N=C(\N)NC(=O)NC3CCCCC3)nc(C)c2c1,"inconclusive: 29.1 µM [cytotoxic, single point]",
Cc1ccc(-c2cc(-c3cccs3)[nH]n2)c(O)c1,,inactive: -9.7%
Cc1c(C(=O)OCC(C)C)[nH]c2c1C(=O)CC(c1cccs1)C2 (stereo not drawn),"inconclusive: 0.517 µM [cytotoxic, full curve, poor fit]",

# Single entries from above:
# Value for `CC1(C(=O)NCC2CCOCC2)Cc2c(-c3cccc(C(F)(F)F)c3)ccnc2O1` (stereo not drawn) under Potency: inconclusive: 29.1 µM [cytotoxic, single point]
# Value for `O=S(=O)(Cc1ccc(Cl)cc1Cl)c1ccc(Cl)cc1` under Potency: active: 1.64 µM
# Value for `COc1cc2c(cc1OC)C1(CCCC1)CNC2C` (stereo not drawn) under activity change, negative = cytotoxic: inactive: -23.9%
